Laboratory results: PubChem BioAssay AID1259307 (Sanger Institute, 2017)

Purpose: 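Screen of kinase gene silencing for colorectal cancer cell killing and drug cooperation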 (primary screen)
Cell system: SW620 colorectal cancer cells
Reagent: siRNA pool against human genes
Conditions: anchor drugs BYL719 at 1 µM, cetuximab at 5 µg/ml or trametinib at 10 nM, each beside a DMSO vehicle arm
Read-out: 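Per-well viability versus non-targeting control pool, replicate-averaged, robust z-score from controls; synergy scores for BYL719 1 µM, cetuximab 5 µg/ml, trametinib 10 nM against DMSO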
Scale: viability robust z-score, no drug and viability vs control, no drug: higher = more viable cells; synergy score with BYL719: higher = stronger synthetic lethality with the drug
Hit rule: 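Essential when the viability robust z-score without drug is under -3; synergy scores are ignored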
Calls: active = essential (lethal alone); inactive = no change alone
The whole screen tested 794 reagents; below is an unselected part. In the full data, 15 (1.9%) are marked active. 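Calls reflect lethality without any drug; synergy scores did not enter the calls.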 A number with no mark means an inactive call. No viability above 1 is reported: the scale is capped. Not all columns of the deposit are shown. The record does not give: the amount of reagent, the time to read-out.

"viability robust z-score, no drug","viability vs control, no drug",synergy score with BYL719,target
0.736,1,-0.0116,MAP2K3
-1.05,0.836,-0.168,PRKCE
0.356,0.965,-0.0184,ALPK2
-0.615,0.875,-0.0559,PRKCA
-0.922,0.847,-0.231,CAD
-1.01,0.839,-0.0109,STK11
0.736,1,0.0545,SGK2
0.736,1,-0.0588,MAP3K15
-0.668,0.87,-0.074,SCYL3
-0.439,0.892,-0.0942,DUSP21
0.463,0.975,-0.11,TSSK4
0.736,1,-0.0343,PI4K2A
0.736,1,-0.0731,PRKAA1
-0.55,0.881,-0.102,CRIM1
-0.78,0.86,-0.0635,EGFR
0.573,0.985,0.149,PIK3C2A
0.736,1,0.037,LYN
-1.26,0.816,0.101,SNRK
0.511,0.979,0.0861,FYN
-1.44,0.799,0.0324,DNMT3A
-0.0356,0.929,-0.0607,DDR2
0.73,0.999,0.076,NEK10
0.736,1,-0.0663,DBF4
0.127,0.944,-0.0906,ERBB2
-0.644,0.873,-0.114,CSNK2B
-0.149,0.918,-0.02,PRKAA2
0.435,0.972,-0.0349,PRKG1
0.2,0.951,-0.0222,MAP3K7
0.375,0.967,-0.0143,CDK10
0.736,1,-0.0919,PRKACA
0.736,1,-0.0161,PTK2B
0.736,1,-0.0256,BRD2
0.565,0.984,0.0651,DGKK
-0.589,0.878,0.141,RIOK1
-2.43,0.708,-0.0876,GUCY2EP
0.736,1,0.0441,ADCK5
0.517,0.98,0.103,GNAS
0.736,1,-0.0351,BRD4
0.736,1,-0.0144,MAP2K4
-0.222,0.912,-0.00506,MAGI1
-2.76,0.677,-0.165,STK39
-0.0186,0.93,0.00636,PRKCH
-2.09,0.739,-0.161,DMPK
-1.33,0.809,0.0335,PDPK1
-0.612,0.876,0.0388,STK16
-0.0272,0.93,-0.0831,IDH2
-1.68,0.777,-0.201,PLK3
0.736,1,-0.0919,EFNA5
0.681,0.995,-0.0187,BRWD1
0.736,1,-0.0919,TSSK1B
0.736,1,-0.0877,TBK1
0.736,1,-0.0587,PIP4K2B
-0.523,0.884,-0.0166,DGKQ
-6.14 (active),0.365,0.0503,PLK1
-4.14 (active),0.55,0.0283,AURKA
-0.323,0.902,0.0195,FES
0.695,0.996,-0.0488,IRAK2
-2.68,0.685,-0.266,ADPGK
0.736,1,-0.0656,EPHB1
0.736,1,-0.046,HK3
0.736,1,-0.0893,PSKH1
-2.02,0.746,-0.00908,HUNK
0.736,1,-0.072,MAST4

An excerpt from above, showing only “synergy score with BYL719”.
GUCY2EP = -0.0876
ADCK5 = 0.0441
GNAS = 0.103
BRD4 = -0.0351
MAP2K4 = -0.0144
MAGI1 = -0.00506
STK39 = -0.165
PRKCH = 0.00636
DMPK = -0.161
PDPK1 = 0.0335
